# Experimental data as given in the supplement of paper PMC3334620.
# Whole data set: some 33,000 sequences, median “E-score (-0.5 to 0.5)” near -0.0034, cut for the highest 2% near 0.25. Some of the results follow.
# Molecular target: T1, Yap3 (UniProt P38749)
# T1 sequence: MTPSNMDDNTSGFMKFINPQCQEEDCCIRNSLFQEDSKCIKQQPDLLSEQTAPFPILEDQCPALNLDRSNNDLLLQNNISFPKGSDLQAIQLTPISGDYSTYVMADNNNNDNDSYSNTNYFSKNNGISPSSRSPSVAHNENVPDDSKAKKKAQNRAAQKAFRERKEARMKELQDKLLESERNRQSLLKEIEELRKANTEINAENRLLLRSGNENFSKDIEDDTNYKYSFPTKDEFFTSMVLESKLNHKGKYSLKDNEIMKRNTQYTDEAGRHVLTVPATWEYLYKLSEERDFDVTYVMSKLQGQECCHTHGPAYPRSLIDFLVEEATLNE
# Assay: PBM E-score (8-mer binding enrichment) (E-score (-0.5 to 0.5)); higher = stronger / more preferred TF binding
# Conditions: protein concentration: 100 nM; construct: GST-full length
# Procedure, shortened: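 Universal all-10-mer Agilent arrays, double-stranded by primer extension on fresh or once-stripped slides, were probed with about 100-200 nM GST-tagged yeast transcription factors made by PURExpress. Fluorescent anti-GST detected bound protein, and masliner normalised the scans. E-scores from the Universal PBM Analysis Suite were given to each ungapped eight-base word pooled with its reverse complement.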
row,Sequence,PBM E-score
1,GTTCTGTA,0.103
2,CATACTGG,-0.0447
3,ACCCCAGG,-0.307
4,CTTAACGC,-0.0679
5,AACCAGCT,0.122
6,AGTCAGAT,0.0191
7,CTGGAACC,-0.218
8,GAAGCATC,-0.103
9,CCAATGGA,-0.057
10,CAGCTGGC,-0.0595
11,CGTTGACC,0.00959
12,GAACATCA,0.116
13,GCTCGTCC,-0.0119
14,ATGTGTAA,0.0322
15,CAGTGCGC,-0.191
16,ACGACGAC,-0.0916
17,CGTGATTA,0.176
18,CCAGGCGC,-0.166
19,GAGTTAAC,-0.0446
20,AGGCTATG,-0.162
21,AATCCATA,0.21
22,CGCGATAC,0.0418
23,CGGAATCC,-0.0654
24,CTCGTGCA,0.00219
25,ACTCACCG,-0.125

# Part of the list above, with bars between the fields.
row | Sequence | PBM E-score
11 | CGTTGACC | 0.00959
12 | GAACATCA | 0.116
13 | GCTCGTCC | -0.0119

# Further entries follow.

row,Sequence,PBM E-score
1,CGACTAGA,0.00357
2,CCAGGCTA,-0.286
3,AGAATCAC,-0.0577
4,CCACGTCG,-0.0823
5,ACAACGGG,0.121
6,GCTTACTA,0.237
7,AGGCGAGA,-0.0505
8,AGAATGAG,0.0677
9,ACAAGAAA,0.268
10,ACCAGGAC,-0.00979
11,GACACAAA,0.115
12,CCTTTCTA,0.0211
13,CGTAGGAC,-0.23
14,GTCCCAAA,-0.0311
15,CTAACTAC,-0.0894
16,TCACGTGA,-0.0216
17,CAGGCTCG,-0.176
18,GAAAATTA,0.207
19,GGAACAAA,0.311
20,GCGACTCA,0.00382
21,CTTGAGCA,-0.119
22,ACGGCAAT,0.285
23,CCGACGGA,-0.0851
24,GTAGGACA,0.00183
25,CATTTGAC,0.0765

row,Sequence,PBM E-score
1,CGTCTGTA,-0.0799
2,AGTATAAA,0.304
3,GCGCTCAC,-0.0475
4,ACAATGGG,0.141
5,GAGCGGGC,-0.179
6,ATGGGCAC,0.0442
7,AGGATGAA,0.0231
8,AGTAGAGA,0.0945
9,CTAGGACC,-0.26
10,CCCGCGTA,-0.109
11,TACCGGAA,0.0506
12,CTCGGTAC,-0.122
13,CCCGACAA,0.137
14,GCGCTATA,0.178
15,AGCTGCGG,-0.282
16,CACGTTAA,0.0332
17,TGAGACCA,-0.0671
18,ATCTGTTG,-0.0152
19,AAGCCTAG,-0.0823
20,CTGCACGC,-0.262
21,ACAGATCG,0.0514
22,AAAGCTCA,-0.16
23,AGACAATC,0.129
24,AGTCCCGG,-0.272
25,GAAACCCA,0.125

# Quoted from the listing:
# Value of AAGCCTAG under PBM E-score: -0.0823
# Value of GCGCTATA under PBM E-score: 0.178
# Value of AGTATAAA under PBM E-score: 0.304

# More records:

row,Sequence,PBM E-score
1,CTTAACAA,0.11
2,CGAGATAG,-0.214
3,CTTAAAAG,-0.236
4,TAATCCGA,0.0489
5,ACAAGATG,0.0992
6,AAGTTAGA,0.136
7,ATTCGCAG,0.121
8,ACAAGGAG,0.0399
9,AAATTGGC,0.0935
10,AACGGCTG,-0.119
11,AGCGCGAG,0.0432
12,AAGCCACG,0.0099
13,CCATACAC,0.00771
14,CCCAGTAA,-0.0208
15,ACCTGTAA,0.106
16,ACAGAAAT,0.052
17,TCGAAGAA,-0.0713
18,ACATCGAG,-0.0351
19,TTGTAAAA,0.219
20,CTTTATGC,0.109
21,GCGTTAAC,0.152
22,CCCTCCAA,-0.0901
23,AAGTGCAT,0.004
24,ACTATCTG,-0.0209
25,ACCAGAAA,0.0364

row,Sequence,PBM E-score
1,AGGCTCAT,-0.243
2,GAGGGCCC,-0.272
3,AAGCGCCT,-0.0906
4,CGAATTTA,0.136
5,GCAATGTA,0.0481
6,ACCCCTGC,-0.293
7,TAGGCATA,0.0333
8,GCATTGGC,-0.192
9,CACTTTGA,-0.123
10,ACTAATCC,0.0891
11,TGGTACAA,0.0741
12,CGGGAGGC,-0.392
13,ATTGGATC,0.00029
14,AACCGCGG,0.164
15,CTGAGTTA,-0.0606
16,TATTATGA,0.203
17,GCCTGCCC,-0.297
18,CCTACAAC,0.125
19,GCACGTCA,-0.158
20,ATTTGTAG,0.117
21,ATCACGTA,0.311
22,GCCACACC,-0.0206
23,ACCAAAGC,-0.136
24,AGGGTGGG,0.079
25,ACGCGTGC,0.0228

row,Sequence,PBM E-score
1,AGAGCGAT,-0.15
2,ATCTCAGG,0.0486
3,AGCCAACA,0.00453
4,AGCCGGCA,-0.122
5,CATGTTAG,-0.0918
6,ATGATTTG,0.0669
7,CAGAAAAG,0.123
8,AAATCTCC,-0.186
9,AAGTCGAT,0.0754
10,TCATGCAA,0.214
11,CTGAATAC,0.134
12,AGCGATAC,-0.0569
13,CAGATAGG,-0.0454
14,CCCCCTAG,-0.341
15,GAAATCGC,-0.0263
16,ACGCGCAG,-0.0605
17,AACTGTTC,0.0651
18,AGCCCCAA,-0.152
19,CCTATGTC,-0.0131
20,CCACACTA,0.168
21,AATCCAGC,-0.0353
22,CAATTCGG,0.116
23,CTGGAGAA,-0.176
24,GATACCCC,-0.0154
25,ACTCATCT,0.115

row,Sequence,PBM E-score
1,AAGGGGAT,0.00955
2,ATATTCGC,0.191
3,GTCCGAGA,0.0651
4,CACATCGA,0.0577
5,AAGAACAT,0.247
6,CAAAGTTG,-0.125
7,AACTCACT,-0.184
8,GGCCAAAC,-0.132
9,AGTCTTGG,-0.0781
10,CATTGGCA,-0.017
11,TCCCCGCA,-0.0831
12,CGGCTAGC,-0.156
13,GCCTAGCC,-0.0707
14,CGTGACCA,-0.0499
15,CTGTAGGA,0.0798
16,AGAGCCAC,-0.222
17,AAGCACTT,-0.0376
18,AAGAGGCG,0.0465
19,ACACAACT,0.12
20,AGCATTGA,-0.0431
21,TTCGTAAA,0.0786
22,AGGGAGCA,-0.309
23,AGCTCATA,-0.0143
24,CGGTAACA,0.193
25,CCTAGATA,0.0173

row,Sequence,PBM E-score
1,GCGAGCCC,-0.199
2,AATAGTCG,0.0905
3,GCCCGTGA,-0.169
4,AAAACGTT,0.122
5,ACCGGATA,0.106
6,CAATAGTC,-0.0565
7,CCCATGAC,0.0625
8,AAGGTATT,0.0804
9,AAGCGGTG,-0.239
10,CAAATAAA,0.197
11,ACGCGCCT,0.0287
12,GTGCGGGA,-0.125
13,GTGGACTA,0.0737
14,GGCAGGCA,-0.146
15,CCTCAAGC,-0.206
16,GTGATCAA,0.0619
17,AGTGCGCG,-0.0557
18,ATAGCACG,-0.0395
19,CCGCACGA,-0.0433
20,CTAATGAG,0.0989
21,ATGTTACC,0.134
22,GTTCGAAC,0.209
23,ATGCTCTC,-0.129
24,ACGTGGCG,-0.0655
25,CTTAAGGA,0.0593

row,Sequence,PBM E-score
1,AAACATTT,0.199
2,AAGACAGA,0.147
3,GGTGCACA,-0.0173
4,ATCGAAAG,0.114
5,TATATAGA,0.192
6,AGGTGCGG,-0.119
7,AATAACAG,0.149
8,CAACAGGA,-0.164
9,CCTATTTA,0.19
10,ACCGCACT,-0.0152
11,AGGAACCC,-0.0773
12,ACCTCGCT,0.0149
13,CTACGGGA,-0.115
14,ATACCCGC,0.0243
15,AGTCGAAG,-0.0648
16,CATTGATA,0.18
17,TGAAGTCA,0.0702
18,CACATATA,0.176
19,GCCACCCC,-0.339

# Quoted from the listing (seven entries):
row,Sequence,PBM E-score
13,CCATACAC,0.00771
14,CCCAGTAA,-0.0208
15,ACCTGTAA,0.106
16,ACAGAAAT,0.052
17,TCGAAGAA,-0.0713
18,ACATCGAG,-0.0351
19,TTGTAAAA,0.219
